Here are results for one substance from publication doi:10.1101/2025.05.19.654996.

Sequences of proteins named here, by UniProt entry; tags and fusion partners are left off.
UniProt Q9Z351: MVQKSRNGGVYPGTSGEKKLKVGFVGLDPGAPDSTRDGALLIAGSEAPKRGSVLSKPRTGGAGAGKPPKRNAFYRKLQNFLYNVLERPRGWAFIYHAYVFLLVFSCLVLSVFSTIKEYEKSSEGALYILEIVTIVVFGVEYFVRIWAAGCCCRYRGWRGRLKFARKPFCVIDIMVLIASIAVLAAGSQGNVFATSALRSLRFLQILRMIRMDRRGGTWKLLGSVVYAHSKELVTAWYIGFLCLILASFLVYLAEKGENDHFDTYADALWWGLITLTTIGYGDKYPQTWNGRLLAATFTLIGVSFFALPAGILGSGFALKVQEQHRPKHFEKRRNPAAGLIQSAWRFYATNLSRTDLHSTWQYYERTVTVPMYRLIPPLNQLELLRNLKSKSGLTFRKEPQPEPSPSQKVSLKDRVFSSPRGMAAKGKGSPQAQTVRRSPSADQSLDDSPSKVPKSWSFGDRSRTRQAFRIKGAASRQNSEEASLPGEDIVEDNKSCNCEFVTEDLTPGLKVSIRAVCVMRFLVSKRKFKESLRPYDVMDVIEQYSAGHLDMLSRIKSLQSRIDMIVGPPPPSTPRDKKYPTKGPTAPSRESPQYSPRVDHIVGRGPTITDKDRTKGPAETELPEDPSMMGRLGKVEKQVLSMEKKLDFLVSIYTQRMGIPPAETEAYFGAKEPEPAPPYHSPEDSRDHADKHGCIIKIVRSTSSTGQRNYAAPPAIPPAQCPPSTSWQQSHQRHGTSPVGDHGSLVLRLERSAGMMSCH

In this experiment the target is T1, neuronal pentraxin1 (NPTX1) (mouse (endogenous in DG tissue)) (UniProt Q62443).
T1 sequence: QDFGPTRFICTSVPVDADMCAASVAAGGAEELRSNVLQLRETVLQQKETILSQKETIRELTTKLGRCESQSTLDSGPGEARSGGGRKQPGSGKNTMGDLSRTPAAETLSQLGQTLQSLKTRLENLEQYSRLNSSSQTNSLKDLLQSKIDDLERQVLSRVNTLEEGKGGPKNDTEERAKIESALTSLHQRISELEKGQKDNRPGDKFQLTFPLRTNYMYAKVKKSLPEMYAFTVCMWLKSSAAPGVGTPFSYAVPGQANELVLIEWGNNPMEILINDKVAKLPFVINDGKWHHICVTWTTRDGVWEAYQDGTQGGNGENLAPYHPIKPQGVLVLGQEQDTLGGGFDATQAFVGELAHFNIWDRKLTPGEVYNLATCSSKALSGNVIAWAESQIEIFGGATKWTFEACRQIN
Kind of experiment: co-IP.

No constants are given. Whether binding was seen depends on the method and setting. Binding seen in cells or lysates may run through a third protein. Some results given as binding are weak or reduced against the parent protein; the word gives no strength.

On to “KCNQ2 (Kv7.2) (from UniProt Q9Z351 1-759)”, for which the binding result is “binds”.
